# Values from PubChem BioAssay AID1224826 (NIAID, 2016)
# Assay: 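Knock-downs that raise or lower Tnf reporter signal after endotoxin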 (primary screen)
# Cells: RAW264.7 G9 macrophages from mouse bearing reporters for p65 (GFP) and the Tnf promoter (mCherry)
# Knock-down reagent: siRNA pool against mouse genes, 100 nM
# Time to read-out: 16 h of LPS stimulation, after 2 days of siRNA transfection
# Challenge: bacterial lipopolysaccharide (Salmonella minnesota R595), 10 ng/ml
# Detection: 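Imaged Tnf reporter mCherry in nuclei, minus background, normalised per plate to the median and expressed as robust z-scores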
# Scale: Tnf reporter robust z-score: higher = stronger Tnf promoter reporter signal after LPS; Tnf reporter intensity: higher = stronger Tnf promoter reporter signal
# Hit rule: 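a well counts as active at a score of -1.3 or below (Tlr4 knock-down control median) or above 3 (raised signal); controls and wells holding fewer than 50 cells are excluded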
# Calls: active = Tnf reporter clearly lowered or raised; inactive = no clear change in Tnf reporter
# This is a random part of about 17,000 reagents tested. Over the whole deposit, about 1,110 (6.6%) got an active call. 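Active means lowered or raised reporter signal; replicate intensities are raw and not normalised per plate.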 A number with no mark means an inactive call. The numbers tell different reagents against one gene apart. Some reagents were tested in more than one well and are listed for each. Further read-outs or replicates are left out here. No sequences are given here.
target,reagent no.,Tnf reporter robust z-score,fewer than 50 cells in well,"Tnf reporter intensity, replicate 1"
Dpys (dihydropyrimidinase),1,0.15,enough cells in well,200
Rhox5 (reproductive homeobox 5),1,-0.61,enough cells in well,120
Mmp23 (matrix metallopeptidase 23),1,0.51,enough cells in well,313
Cxcl11 (chemokine (C-X-C motif) ligand 11),1,0.67,enough cells in well,331
"Polg2 (polymerase (DNA directed), gamma 2, accessory subunit)",1,-0.78,enough cells in well,101
Mns1 (meiosis-specific nuclear structural protein 1),1,2.64,enough cells in well,372
Atf7ip2 (activating transcription factor 7 interacting protein 2),1,2.05,enough cells in well,328
Atf7ip2 (activating transcription factor 7 interacting protein 2),2,-0.11,enough cells in well,184
Kcnh7,1,0.48,enough cells in well,243
Ssbp3 (single-stranded DNA binding protein 3),1,,fewer than 50 cells per well; well left out of calls,23.2
Bloc1s6,1,-1.21,enough cells in well,80.6
Zfp771 (zinc finger protein 771),1,-1.48 (active),enough cells in well,108
"St3gal4 (ST3 beta-galactoside alpha-2,3-sialyltransferase 4)",1,-0.63,enough cells in well,70
Nkx6-1 (NK6 homeobox 1),1,-0.84,enough cells in well,153
Patl1 (protein associated with topoisomerase II homolog 1 (yeast)),1,-0.44,enough cells in well,121
Vmn1r233 (vomeronasal 1 receptor 233),1,-0.84,enough cells in well,195
"Nlrp4a (NLR family, pyrin domain containing 4A)",1,0.5,enough cells in well,205
B2m (beta-2 microglobulin),1,-1.67 (active),enough cells in well,69

An excerpt from the list above, for reference:
target,reagent no.,Tnf reporter robust z-score,fewer than 50 cells in well,"Tnf reporter intensity, replicate 1"
Kcnh7,1,0.48,enough cells in well,243
Ssbp3 (single-stranded DNA binding protein 3),1,,fewer than 50 cells per well; well left out of calls,23.2
Bloc1s6,1,-1.21,enough cells in well,80.6
Zfp771 (zinc finger protein 771),1,-1.48 (active),enough cells in well,108
"St3gal4 (ST3 beta-galactoside alpha-2,3-sialyltransferase 4)",1,-0.63,enough cells in well,70
Nkx6-1 (NK6 homeobox 1),1,-0.84,enough cells in well,153

The results go on:
target,reagent no.,Tnf reporter robust z-score,fewer than 50 cells in well,"Tnf reporter intensity, replicate 1"
Fmc1 (formation of mitochondrial complex V assembly factor 1),1,1.96,enough cells in well,478
Tango2 (transport and golgi organization 2),1,1.3,enough cells in well,320
Ces3b (carboxylesterase 3B),1,-1.15,enough cells in well,132
Acsf3 (acyl-CoA synthetase family member 3),1,2.59,enough cells in well,399
Hoxb2 (homeobox B2),1,0.61,enough cells in well,257
Tnrc18 (trinucleotide repeat containing 18),1,0.24,enough cells in well,233
Sectm1a (secreted and transmembrane 1A),1,-0.07,enough cells in well,211
Bricd5 (BRICHOS domain containing 5),1,1.03,enough cells in well,236
"Rab8a (RAB8A, member RAS oncogene family)",1,1.73,enough cells in well,487
Bmf (BCL2 modifying factor),1,,fewer than 50 cells per well; well left out of calls,52.2
Msantd4,1,0.7,enough cells in well,267
"Ppp4c (protein phosphatase 4, catalytic subunit)",1,0.75,enough cells in well,239
Trpm3,1,0.4,enough cells in well,115
Cbx6 (chromobox 6),1,-1.01,enough cells in well,119
Cbx6 (chromobox 6),1,-0.21,enough cells in well,219
"Edem3 (ER degradation enhancer, mannosidase alpha-like 3)",1,-0.28,enough cells in well,105
Fate1 (fetal and adult testis expressed 1),1,1,enough cells in well,254
"Grm6 (glutamate receptor, metabotropic 6)",1,-0.03,enough cells in well,237
Ptger4 (prostaglandin E receptor 4 (subtype EP4)),1,-0.57,enough cells in well,248
Cimip2c (ciliary microtubule inner protein 2C),1,0.16,enough cells in well,225
"Aldoa (aldolase A, fructose-bisphosphate)",1,-0.04,enough cells in well,199
Adam4 (a disintegrin and metallopeptidase domain 4),1,1.77,enough cells in well,390
